Literature values as cited in patent publication US20130034497A1, “IODINE-LABELED HOMOGLUTAMIC ACID AND GLUTAMIC ACID DERIVATIVES” (PIRAMAL IMAGING SA, priority 2009, published 2013).

Conditions: oncology overall; cited from earlier work

OC[C@H]1OC(O)[C@H]([18F])[C@@H](O)[C@@H]1O (some centres unmarked) [FDG, 2-[^18 F]-fluoro-deoxyglucose]
sensitivity of diagnosis: 84%
specificity of diagnosis: 88%
